No constants are given. Whether binding was seen depends on the method and setting. Some entries that bind do so weakly or less than the wild type.
B1: HDAC3, O15379 1-428 (enzyme)
chain: MAKTVAYFYDPDVGNFHYGAGHPMKPHRLALTHSLVLHYGLYKKMIVFKPYQASQHDMCRFHSEDYIDFLQRVSPTNMQGFTKSLNAFNVGDDCPVFPGLFEFCSRYTGASLQGATQLNNKICDIAINWAGGLHHAKKFEASGFCYVNDIVIGILELLKYHPRVLYIDIDIHHGDGVQEAFYLTDRVMTVSFHKYGNYFFPGTGDMYEVGAESGRYYCLNVPLRDGIDDQSYKHLFQPVINQVVDFYQPTCIVLQCGADSLGCDRLGCFNLSIRGHGECVEYVKSFNIPLLVLGGGGYTVRNVARCWTYETSLLVEEAISEELPYSEYFEYFAPDFTLHPDVSTRIENQNSRQYLDQIRQTIFENLKMLNHAPSVQIHDVPADLLTYDRTDEADAEERGPEENYSRPEAPNEFYDGDHDNDKESDVEI
B2: TBL1 (protein, UniProt O60907 1-577)
chain: MTELAGASSSCCHRPAGRGAMQSVLHHFQRLRGREGGSHFINTSSPRGEAKMSITSDEVNFLVYRYLQESGFSHSAFTFGIESHISQSNINGTLVPPAALISILQKGLQYVEAEISINEDGTVFDGRPIESLSLIDAVMPDVVQTRQQAFREKLAQQQASAAAAAAAATAAATAATTTSAGVSHQNPSKNREATVNGEENRAHSVNNHAKPMEIDGEVEIPSSKATVLRGHESEVFICAWNPVSDLLASGSGDSTARIWNLNENSNGGSTQLVLRHCIREGGHDVPSNKDVTSLDWNTNGTLLATGSYDGFARIWTEDGNLASTLGQHKGPIFALKWNRKGNYILSAGVDKTTIIWDAHTGEAKQQFPFHSAPALDVDWQNNTTFASCSTDMCIHVCRLGCDRPVKTFQGHTNEVNAIKWDPSGMLLASCSDDMTLKIWSMKQEVCIHDLQAHNKEIYTIKWSPTGPATSNPNSNIMLASASFDSTVRLWDIERGVCTHTLTKHQEPVYSVAFSPDGKYLASGSFDKCVHIWNTQSGNLVHSYRGTGGIFEVCWNARGDKVGASASDGSVCVLDLRK

Protein sequences, listed by entry. Tags and fused reporters are not part of them.
UniProt Q9Y618: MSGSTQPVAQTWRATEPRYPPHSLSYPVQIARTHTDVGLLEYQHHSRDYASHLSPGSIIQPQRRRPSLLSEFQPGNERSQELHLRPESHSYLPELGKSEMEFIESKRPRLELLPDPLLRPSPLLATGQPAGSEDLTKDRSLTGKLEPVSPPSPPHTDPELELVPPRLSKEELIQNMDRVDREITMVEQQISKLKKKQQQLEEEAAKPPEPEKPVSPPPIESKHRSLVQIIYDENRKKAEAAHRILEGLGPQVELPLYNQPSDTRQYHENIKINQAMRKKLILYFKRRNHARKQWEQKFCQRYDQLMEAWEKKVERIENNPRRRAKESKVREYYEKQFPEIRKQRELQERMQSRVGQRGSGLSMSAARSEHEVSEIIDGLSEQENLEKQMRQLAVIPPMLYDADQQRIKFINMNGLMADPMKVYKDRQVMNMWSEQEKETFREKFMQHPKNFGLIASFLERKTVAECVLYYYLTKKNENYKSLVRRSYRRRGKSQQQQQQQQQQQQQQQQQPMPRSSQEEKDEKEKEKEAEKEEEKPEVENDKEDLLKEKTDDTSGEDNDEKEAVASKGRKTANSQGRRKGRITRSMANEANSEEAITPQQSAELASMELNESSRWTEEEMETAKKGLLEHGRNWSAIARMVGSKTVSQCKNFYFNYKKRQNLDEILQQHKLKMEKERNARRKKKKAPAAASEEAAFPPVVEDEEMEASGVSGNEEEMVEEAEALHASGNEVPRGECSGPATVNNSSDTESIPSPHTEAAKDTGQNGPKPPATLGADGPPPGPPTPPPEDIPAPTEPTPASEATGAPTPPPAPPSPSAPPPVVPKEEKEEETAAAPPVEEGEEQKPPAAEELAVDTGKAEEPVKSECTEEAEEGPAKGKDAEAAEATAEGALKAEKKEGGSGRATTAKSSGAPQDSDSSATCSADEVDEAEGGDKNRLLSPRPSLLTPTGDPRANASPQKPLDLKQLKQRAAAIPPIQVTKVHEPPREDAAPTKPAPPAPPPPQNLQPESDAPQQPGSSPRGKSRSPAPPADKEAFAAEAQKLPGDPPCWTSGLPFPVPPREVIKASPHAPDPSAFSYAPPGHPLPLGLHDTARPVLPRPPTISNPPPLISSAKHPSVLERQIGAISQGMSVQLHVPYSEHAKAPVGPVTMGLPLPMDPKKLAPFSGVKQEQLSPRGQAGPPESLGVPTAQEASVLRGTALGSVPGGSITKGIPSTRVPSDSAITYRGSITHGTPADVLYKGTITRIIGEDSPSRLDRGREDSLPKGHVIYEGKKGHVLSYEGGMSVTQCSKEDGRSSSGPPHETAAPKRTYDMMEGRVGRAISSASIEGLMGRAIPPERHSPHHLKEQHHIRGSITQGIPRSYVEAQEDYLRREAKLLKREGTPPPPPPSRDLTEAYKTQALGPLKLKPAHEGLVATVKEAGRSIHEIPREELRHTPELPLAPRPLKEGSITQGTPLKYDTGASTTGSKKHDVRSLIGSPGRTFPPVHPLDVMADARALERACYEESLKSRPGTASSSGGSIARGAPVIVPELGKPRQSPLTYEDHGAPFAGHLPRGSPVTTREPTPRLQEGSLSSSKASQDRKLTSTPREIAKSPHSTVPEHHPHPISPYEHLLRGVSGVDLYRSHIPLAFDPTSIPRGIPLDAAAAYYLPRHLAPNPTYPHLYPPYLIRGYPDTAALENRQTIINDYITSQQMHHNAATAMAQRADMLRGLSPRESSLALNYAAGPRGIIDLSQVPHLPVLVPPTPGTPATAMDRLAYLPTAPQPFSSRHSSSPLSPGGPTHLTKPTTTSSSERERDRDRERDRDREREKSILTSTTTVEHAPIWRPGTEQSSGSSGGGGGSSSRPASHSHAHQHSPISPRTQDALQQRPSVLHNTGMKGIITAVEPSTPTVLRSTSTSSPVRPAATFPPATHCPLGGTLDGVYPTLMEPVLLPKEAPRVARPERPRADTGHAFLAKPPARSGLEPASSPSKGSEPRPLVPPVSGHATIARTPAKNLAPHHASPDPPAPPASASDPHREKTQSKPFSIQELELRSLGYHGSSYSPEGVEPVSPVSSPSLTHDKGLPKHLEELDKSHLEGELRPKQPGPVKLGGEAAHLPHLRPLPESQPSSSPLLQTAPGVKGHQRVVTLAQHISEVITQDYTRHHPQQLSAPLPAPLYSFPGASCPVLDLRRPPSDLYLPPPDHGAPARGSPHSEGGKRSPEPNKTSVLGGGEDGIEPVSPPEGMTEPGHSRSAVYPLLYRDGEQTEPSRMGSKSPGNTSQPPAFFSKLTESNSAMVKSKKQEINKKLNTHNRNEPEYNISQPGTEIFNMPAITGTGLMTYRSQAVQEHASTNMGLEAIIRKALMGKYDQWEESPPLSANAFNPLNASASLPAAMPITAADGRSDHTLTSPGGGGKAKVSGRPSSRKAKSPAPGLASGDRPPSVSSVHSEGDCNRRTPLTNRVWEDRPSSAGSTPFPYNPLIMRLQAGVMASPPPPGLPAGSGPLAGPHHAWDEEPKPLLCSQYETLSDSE

How the values were obtained:
SMRT, Q9Y618 = experiment: co-purification of a recombinant complex; complexes transfected, expressed and purified as previously described (refs 23, 43); bait and purification steps not given; conditions: remark: other sources report otherwise
SMRT = SMRT (UniProt Q9Y618); experiment: as above

Binder | binding (SMRT, Q9Y618) | binding (SMRT)
B1 | binds | 
B2 |  | binds

Reference: article PMC6168483
